# Screening data, single-dose tests

Data taken from ChEMBL document CHEMBL3988442, “University of Dundee, Small-Polar-MMV Screening Library” (2021).

Results are given as percent effect.
How 0% and 100% were set is not recorded. Most values in the screen are low, and negative values occur.
Compounds were drawn at random from those tested, without regard to their results.
Two or more numbers in one place are separate tests of the same structure; such repeats can differ widely.

A: 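Whole-cell growth test on Mycobacterium tuberculosis, read after 4 days in a medium based on cholesterol and the lipid DPPC; the read-out is not stated. Compounds at 50 µM. The record gives no direction; compounds that gave an IC50 in retests scored well above the rest, so higher reads as more growth inhibition. About 69,000 compounds were tested under these conditions; 0.54% (about 370) showed 50% or more at least once.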
B: 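Growth of Mycobacterium tuberculosis over 3 days (7H9 medium with glucose and tyloxapol); the read-out is not stated. Concentration: 50 µM. The record gives no direction; compounds that gave an IC50 in retests scored well above the rest, so higher reads as more growth inhibition. Of about 69,000 compounds tested this way, about 760 (1.1%) reached 50% or more in at least one test.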

structure	A	B
CC(C)[C@@H]1CN(Cc2cnc(C3CCCCC3)nc2)C[C@H]1N(C)C	-21.63	-25.69
O=C(O)CC(O)(CC(=O)O)C(=O)O.[H][C@@]12CC[C@@](O)(c3ccccn3)[C@]1([H])CN(Cc1ccccn1)C2	11.3	-5.679
CC(C)n1ncc2c1NC(=O)CSC2C(C)(C)C (centres unmarked)	-5.853	-7.259
Fc1cccc2c1CCC2NCc1ccc(N2CCOCC2)cc1 (centres unmarked)	-6.252	6.072
COc1cccc(CN2CCCC(Cn3nc(C)nc3C)C2)c1 (centres unmarked)	2.984	-0.4249 and -18.65
O=C(C1CCOCC1)N1CCC2(CCC(C(=O)N3CCCC3)O2)CC1 (centres unmarked)	-6.99	-8.026
CC(C)COC(=O)N1CC(=O)N(CCCc2ccccc2)CC(O)C1 (centres unmarked)	4.049	16.97
Cc1ccc(OCc2occc2C(=O)N2CCOC(C(=O)O)C2)cc1 (centres unmarked)	-2.145	-27.72
Cn1nnc2cc(C(=O)NS(=O)(=O)c3cccc(C#N)c3)ccc21	-14.38	-25.95
COc1cccc(CN(C)Cc2nc(C(C)C)no2)c1	18.73	5.703
COc1ccc(CN2CCN(Cc3nccn3C)C(C)C2)cc1F (centres unmarked)	5.072	-1.454 and -10.48
O=C(O)C(F)(F)F.O=C(O)C(F)(F)F.O[C@H]1CCN(Cc2ccoc2)[C@H]1Cc1cccnc1	-9.271	-30.81
Cc1nccn1CCCN1CCCC(c2nccn2C)C1 (centres unmarked)	-1.576	-18.77
[H][C@@]12CS(=O)(=O)C[C@]1([H])N(Cc1ccc(C)c(C)c1)CCN2CC1CC1	-0.619	-1.164
CCOc1ccnc(N2CCN(C(=O)CCc3ccsc3)CC2)n1	0.8956	1.768
O=C(c1cnn[nH]1)N1CCCC1c1nc2cc(F)ccc2[nH]1 (centres unmarked)	-14.05	13.78
CC(C)N1CCc2[nH]nc(C(=O)N3CCCC3C)c2C1 (centres unmarked)	12.13	-20.43
COCC(=O)N1Cc2cn(C)nc2C(COc2cccnc2)C1 (centres unmarked)	-13.62	-1.445
[H][C@@]12CS(=O)(=O)C[C@]1([H])N(S(=O)(=O)c1ccccc1OC)CCN2C	-16.01	-5.744 and -39.11
COc1ccccc1N1CCN(C(=O)CCc2nncn2C)C(C)C1 (centres unmarked)	-2.142	-29.48
Cc1cncc(C(=O)N2CCOc3nc(C)ccc32)c1	-7.594	5.573
CNS(=O)(=O)CC(=O)N(Cc1ccsc1)c1ccccc1	-5.009	-40.01
Cc1cc(S(=O)(=O)Nc2cccc(I)c2)sc1C(=O)O	15.74	2.256 and 2.301

The last 2 entries again:

{"structure": "CNS(=O)(=O)CC(=O)N(Cc1ccsc1)c1ccccc1", "A": -5.009, "B": -40.01}
{"structure": "Cc1cc(S(=O)(=O)Nc2cccc(I)c2)sc1C(=O)O", "A": 15.74, "B": "2.256 and 2.301"}